# The list shows a part of the results, in another mix than the full data. For some of these results: At the low end of the ranking, values are background and their order means little. The list shows a part of the results. For some of these results: The source does not settle which construct or isoform was used.
# Sequences of proteins named here, by UniProt entry; tags and fusion partners are left off. A change or cut given only in a name is not applied to a line headed by its entry.
# UniProt P32519: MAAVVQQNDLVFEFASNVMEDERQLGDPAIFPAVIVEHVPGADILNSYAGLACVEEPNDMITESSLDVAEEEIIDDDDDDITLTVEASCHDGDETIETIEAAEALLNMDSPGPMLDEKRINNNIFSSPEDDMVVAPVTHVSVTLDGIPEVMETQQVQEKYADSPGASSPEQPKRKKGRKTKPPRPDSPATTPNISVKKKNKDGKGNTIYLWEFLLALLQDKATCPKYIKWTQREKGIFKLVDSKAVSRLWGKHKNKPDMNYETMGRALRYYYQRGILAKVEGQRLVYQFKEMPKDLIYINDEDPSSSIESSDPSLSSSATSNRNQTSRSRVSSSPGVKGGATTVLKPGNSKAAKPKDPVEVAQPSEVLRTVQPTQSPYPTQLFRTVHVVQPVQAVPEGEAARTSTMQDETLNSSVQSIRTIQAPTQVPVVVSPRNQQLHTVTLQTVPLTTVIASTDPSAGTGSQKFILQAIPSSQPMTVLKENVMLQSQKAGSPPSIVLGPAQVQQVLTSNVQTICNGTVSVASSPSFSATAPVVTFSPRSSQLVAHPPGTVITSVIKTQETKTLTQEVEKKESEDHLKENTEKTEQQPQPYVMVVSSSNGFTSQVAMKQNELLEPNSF
# How the values were obtained:
# ELF1 = ELF1 (UniProt P32519); test: DAPPL (digital affinity profiling via proximity ligation, sequencing); conditions: 10 mM Tris-HCl pH 7.5, 50 mM NaCl, 1 mM DTT, 4% glycerol, room temperature, 30 min; GST-TFs on glutathione beads, 16-mer random dsDNA library, 0.1% …; high values mean tight binding; double strand, one strand shown; scale: fold enrichment (6-mer frequency, TF over GST control)
# ETV4 = biological target: T1, ETV4 (UniProt P43268); test: as above; conditions: 10 mM Tris-HCl pH 7.5, 50 mM NaCl, 1 mM DTT, 4% glycerol, room temperature, 30 min; GST-TFs on glutathione beads, 16-mer random dsDNA library, 0.1% …; high values mean tight binding; double strand, one strand shown; scale: fold enrichment (6-mer frequency, TF over GST control)
# T1 sequence: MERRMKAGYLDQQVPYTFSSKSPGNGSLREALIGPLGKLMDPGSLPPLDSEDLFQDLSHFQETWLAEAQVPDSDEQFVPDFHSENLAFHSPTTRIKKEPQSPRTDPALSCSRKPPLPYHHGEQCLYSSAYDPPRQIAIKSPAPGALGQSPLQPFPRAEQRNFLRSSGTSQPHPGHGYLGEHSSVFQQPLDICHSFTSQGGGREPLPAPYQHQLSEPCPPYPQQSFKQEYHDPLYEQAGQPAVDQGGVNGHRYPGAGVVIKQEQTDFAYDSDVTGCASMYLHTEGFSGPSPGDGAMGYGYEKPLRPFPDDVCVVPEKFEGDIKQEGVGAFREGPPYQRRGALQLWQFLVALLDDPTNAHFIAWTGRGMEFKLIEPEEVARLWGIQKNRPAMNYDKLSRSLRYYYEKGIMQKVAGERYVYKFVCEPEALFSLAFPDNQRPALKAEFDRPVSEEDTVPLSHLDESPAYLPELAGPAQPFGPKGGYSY
Sequence,binding signal (ELF1),binding signal (ETV4)
TAGGGC,1,0.988
TCTACA,1.28,1.29
ATCAAA,1.07,1.04
TGTCCC,1.28,1.46
GAAAAA,1.1,1.06
TCAACT,1.31,1.32
TTCATT,1.24,1.23
CCTTGC,1.45,1.41
GCTAAA,1.08,1.09
TTGCCA,1.03,1.04
GGAAAT,2.39,2.67
CTACCG,1.64,1.5
TTTCTG,1.34,1.31
CCCTGT,1.17,1.1
CATTTT,1.18,1.14
TCACTA,1.21,1.18
GGCTAC,1.26,1.19
TATGCT,1.29,1.46
CCGGAT,2.97,3.45

# At a glance, part of the list above.
Sequence,binding signal (ELF1),binding signal (ETV4)
GGAAAT,2.39,2.67
CTACCG,1.64,1.5
TTTCTG,1.34,1.31

# Following part

Sequence,binding signal (ELF1),binding signal (ETV4)
ATTCAT,1.16,1.12
ACGATT,1.32,1.28
ATCTGC,1.45,1.28
TACCTT,1.3,1.39
ACCTTT,1.47,1.48
CCTTAT,1.39,1.43
GGAAGT,2.87,3.38
AGATGC,1.04,0.947
CCGGTT,1.96,2.24
TTTATC,1.21,1.14
AATTTG,1.26,1.32
GATTCA,1.17,1.19
CCCTCT,1.28,1.34
CCGCTT,1.92,1.94
CCAATA,1.25,1.25
ACGCAC,1.06,1.04
AGTACT,1.22,1.38
CATGCA,1.1,1.06
TTGAAG,0.987,0.965
